Laboratory results as given in publication doi:10.1101/2025.03.25.645379.
Results are given in words; binding and its absence hold for the method and conditions named. Binding seen in cells or lysates may run through a third protein. A yes stands for co-enrichment or nearness to the bait. Other partners may have been found.

What was measured:
[1] = biological target: PacL1 fused to a C-terminal ALFA tag (M. tuberculosis H37Rv) (UniProt P96874); assay: proximity labelling
[2] = biological target: PacL1 with an internal ALFA tag (M. tuberculosis H37Rv); assay: proximity labelling

| Molecule | binding [1] | binding [2] |
| --- | --- | --- |
| PPE20 (from UniProt P9WI22 1-539) | binds | – |
| AhpC (protein, UniProt P9WQB7 1-195) MPLLTIGDQFPAYQLTALIGGDLSKVDAKQPGDYFTTITSDEHPGKWRVVFFWPKDFTFVCPTEIAAFSKLNDEFEDRDAQILGVSIDSEFAHFQWRAQHNDLKTLPFPMLSDIKRELSQAAGVLNADGVADRVTFIVDPNNEIQFVSATAGSVGRNVDEVLRVLDALQSDELCACNWRKGDPTLDAGELLKASA | binds | binds |
| CtpC (protein, UniProt P9WPT5 1-718) MTLEVVSDAAGRMRVKVDWVRCDSRRAVAVEEAVAKQNGVRVVHAYPRTGSVVVWYSPRRADRAAVLAAIKGAAHVAAELIPARAPHSAEIRNTDVLRMVIGGVALALLGVRRYVFARPPLLGTTGRTVATGVTIFTGYPFLRGALRSLRSGKAGTDALVSAATVASLILRENVVALTVLWLLNIGEYLQDLTLRRTRRAISELLRGNQDTAWVRLTDPSAGSDAATEIQVPIDTVQIGDEVVVHEHVAIPVDGEVVDGEAIVNQSAITGENLPVSVVVGTRVHAGSVVVRGRVVVRAHAVGNQTTIGRIISRVEEAQLDRAPIQTVGENFSRRFVPTSFIVSAIALLITGDVRRAMTMLLIACPCAVGLSTPTAISAAIGNGARRGILIKGGSHLEQAGRVDAIVFDKTGTLTVGRPVVTNIVAMHKDWEPEQVLAYAASSEIHSRHPLAEAVIRSTEERRISIPPHEECEVLVGLGMRTWADGRTLLLGSPSLLRAEKVRVSKKASEWVDKLRRQAETPLLLAVDGTLVGLISLRDEVRPEAAQVLTKLRANGIRRIVMLTGDHPEIAQVVADELGIDEWRAEVMPEDKLAAVRELQDDGYVVGMVGDGINDAPALAAADIGIAMGLAGTDVAVETADVALANDDLHRLLDVGDLGERAVDVIRQNYGMSIAVNAAGLLIGAGGALSPVLAAILHNASSVAVVANSSRLIRYRLDR | binds | binds |
| Rv2083 (protein, UniProt P9WLK3 1-314) MTSIESHPEQYWAAAGRPGPVPLALGPVHPGGPTLIDLLMALFGLSTNADLGGANADIEGDDTDRRAHAADAARKFSANEANAAEQMQGVGAQGMAQMASGIGGALSGALGGVMGPLTQLPQQAMQAGQGAMQPLMSAMQQAQGADGLAAVDGARLLDSIGGEPGLGSGAGGGDVGGGGAGGTTPTGYLGPPPVPTSSPPTTPAGAPTKSATMPPPGGASPASAHMGAAGMPMVPPGAMGARGEGSGQEKPVEKRLTAPAVPNGQPVKGRLTVPPSAPTTKPTDGKPVVRRRILLPEHKDFGRIAPDEKTDAGE | binds | binds |
| MoeX (protein, UniProt A5U339 1-330) MIIELMRRVVGLAQGATAEVAVYGDRDRDLAERWCANTGNTLVRADVDQTGVGTLVVRRGHPPDPASVLGPDRLPGVRLWLYTNFHCNLCCDYCCVSSSPSTPHRELGAERIGRIVGEAARWGVRELFLTGGEPFLLPDIDTIIATCVKQLPTTVLTNGMVFKGRGRRALESLPRGLALQISLDSATPELHDAHRGAGTWVKAVAGIRLALSLGFRVRVAATVASPAPGELTAFHDFLDGLGIAPGDQLVRPIALEGAASQGVALTRESLVPEVTVTADGVYWHPVAATDERALVTRTVEPLTPALDMVSRLFAEQWTRAAEEAALFPCA | binds | binds |
| Rv1265 (protein, UniProt P9WM49 1-226) MVLARPDAVFAPARNRCHVSLPVNAMSLKMKVCNHVIMRHHHMHGRRYGRPGGWQQAQQPDASGAAEWFAGRLPEDWFDGDPTVIVDREEITVIGKLPGLESPEEESAARASGRVSRFRDETRPERMTIADEAQNRYGRKVSWGVEVGGERILFTHIAVPVMTRLKQPERQVLDTLVDAGVARSRSDALAWSVKLVGEHTEEWLAKLRTAMSAVDDLRAQGPDLPA | binds | binds |
